Test results as given in publication PMC8471926.
These are yes or no findings as the source states them, for the method shown. Binding seen in cells or lysates may run through a third protein. Some binding calls cover weakened binding; strength is not graded here.

Protein sequences, listed by entry. Tags and fused reporters are not part of them. Lines headed by an entry give the natural chain unless they say otherwise; changes in a name come on top.
UniProt O60934: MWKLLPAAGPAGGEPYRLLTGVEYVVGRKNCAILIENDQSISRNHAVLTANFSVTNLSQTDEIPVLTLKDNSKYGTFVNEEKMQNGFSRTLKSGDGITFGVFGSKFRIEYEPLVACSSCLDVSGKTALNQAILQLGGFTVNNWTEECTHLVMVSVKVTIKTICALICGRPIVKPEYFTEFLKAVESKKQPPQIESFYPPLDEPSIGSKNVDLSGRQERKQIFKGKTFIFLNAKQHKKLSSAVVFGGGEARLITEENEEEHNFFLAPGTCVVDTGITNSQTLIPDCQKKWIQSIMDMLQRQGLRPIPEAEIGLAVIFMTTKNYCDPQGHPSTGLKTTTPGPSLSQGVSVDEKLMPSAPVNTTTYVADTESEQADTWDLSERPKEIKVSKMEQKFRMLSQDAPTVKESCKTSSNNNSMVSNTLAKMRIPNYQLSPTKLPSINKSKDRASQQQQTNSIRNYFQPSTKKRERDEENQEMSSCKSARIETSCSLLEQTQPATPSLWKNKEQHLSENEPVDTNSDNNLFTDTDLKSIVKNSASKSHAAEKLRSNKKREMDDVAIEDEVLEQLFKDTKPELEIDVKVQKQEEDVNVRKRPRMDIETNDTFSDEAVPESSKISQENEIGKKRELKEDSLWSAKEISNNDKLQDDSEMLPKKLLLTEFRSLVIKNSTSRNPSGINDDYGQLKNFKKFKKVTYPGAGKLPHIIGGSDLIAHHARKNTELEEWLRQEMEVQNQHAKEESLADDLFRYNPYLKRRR
UniProt Q00987: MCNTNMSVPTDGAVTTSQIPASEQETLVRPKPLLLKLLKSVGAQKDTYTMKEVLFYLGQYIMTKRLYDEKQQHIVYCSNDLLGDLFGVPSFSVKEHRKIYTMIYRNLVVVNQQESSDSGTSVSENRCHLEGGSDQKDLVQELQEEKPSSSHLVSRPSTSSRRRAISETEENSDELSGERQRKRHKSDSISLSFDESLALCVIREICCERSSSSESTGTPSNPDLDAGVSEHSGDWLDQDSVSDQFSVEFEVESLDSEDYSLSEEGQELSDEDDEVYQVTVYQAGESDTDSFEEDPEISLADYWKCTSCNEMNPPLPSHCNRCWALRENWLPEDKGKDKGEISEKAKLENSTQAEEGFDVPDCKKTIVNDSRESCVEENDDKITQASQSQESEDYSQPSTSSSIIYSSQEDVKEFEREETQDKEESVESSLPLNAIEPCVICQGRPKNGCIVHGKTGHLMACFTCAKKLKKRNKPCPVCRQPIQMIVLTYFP

Biological target: NBN (human (endogenous in H1299)) (UniProt O60934)
Test: proximity ligation; H1299 cells expressing exogenous MDM2 (GFP co-transfection marker), 40 min after 150 nM NCS; fixed with methanol; Duolink In Situ Detection Reagents Red with anti-mouse MINUS and anti-rabbit PLUS probes; confocal microscopy, PLA foci per nucleus

Row | binding | Substance
1 | binds | MDM2 K454A (from UniProt Q00987 1-491)
2 | binds | MDM2 WT (from UniProt Q00987 1-491)
